# These are yes or no findings as the source states them, for the method shown. Binding seen in cells or lysates may run through a third protein. Some results given as binding are weak or reduced against the parent protein; the word gives no strength.
# Chains of the proteins cited; added tags and fusions are not shown. Lines headed by an entry give the natural chain unless they say otherwise; changes in a name come on top.
# UniProt Q07817: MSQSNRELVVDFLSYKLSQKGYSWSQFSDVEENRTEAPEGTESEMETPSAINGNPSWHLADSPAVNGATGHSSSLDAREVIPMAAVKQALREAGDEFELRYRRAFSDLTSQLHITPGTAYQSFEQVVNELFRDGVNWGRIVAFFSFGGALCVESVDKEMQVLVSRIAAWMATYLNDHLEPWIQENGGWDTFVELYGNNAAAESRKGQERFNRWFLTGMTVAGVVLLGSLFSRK
# UniProt Q07813: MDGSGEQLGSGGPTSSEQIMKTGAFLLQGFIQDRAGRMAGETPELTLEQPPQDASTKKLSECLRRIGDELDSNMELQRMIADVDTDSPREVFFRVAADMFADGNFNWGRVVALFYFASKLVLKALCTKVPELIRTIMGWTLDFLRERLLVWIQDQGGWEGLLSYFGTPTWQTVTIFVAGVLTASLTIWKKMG
# Target: Bcl-xL (human) (UniProt Q07817)
# Assay: co-IP; HEK cells co-transfected with a GFP-tagged Bax construct and Bcl-xL, harvested after 15 hours; lysed in 1% CHAPS, 50 mM Tris-Cl, 150 mM NaCl, 1 mM EDTA, pH 7.4; Bcl-xL immunoprecipitated with 10 μg antibody to Bcl-xL and Protein-G agarose at 4°C; immunoprecipitates blotted with an antibody to GFP and for actin
row,Substance,binding
1,Bax 1–146-GFP (from UniProt Q07813 1-146) (domain or fragment),binds
2,Bax 30–105-GFP (from UniProt Q07813 30-105) (domain or fragment),binds
3,Bax 30–146-GFP (from UniProt Q07813 30-146) (domain or fragment),binds
